This passage reports binding results from article doi:10.1101/2021.09.30.462556.

No constants are given. Whether binding was seen depends on the method and setting. Binding seen in cells or lysates may run through a third protein. Binding calls can cover weak binding; strength is not graded here. For part of these data: Tags and fused reporters may be left off the sequences shown.

The target in one test is TES-1::GFP (C. elegans) (UniProt Q17525). Kind of test: co-IP.
A further test addresses GST-TES-1 (C. elegans). Kind of test: pull-down.

B1: HMP-1/α-catenin, endogenous (protein, UniProt P90947 1-927)
chain: MPANGNSHAYFNIDEVRSKNVLKQITQLINEVTNITETFPLKPGQTTEGLVATLDAAVANFLQTGSFAISKCPIANSDPRAIDLLHEALGAVQDTGQVMIQTGRDFVRDSTSTNKRAIATNSGRNLLTAVAKFLILADSIDVKVIVDKVDEVRETAHQMIEADTKIKVDDLYNLLISQIEELDITVRRRAIDLVKPNQRDDLLAARSALRQTAPLLYTSTRTFVRHPEHEEARRNRDYTADEMHSALNALESVLNGQQPKVTFSEYGRIGDLINEIDTFQNRIEIDPAHYRRGTDRPDLEGHCERIVSGSASIADAESTRENRKQKIVAECNNLRQALQELLTEYEKSTGRRDDNDDIPLGIAEVHKRTKDLRRHLRRAIVDHISDAFLDTRTPLILLIEAAKEGHEENTRYRSKMFQEHANEIVSVARLSCQLSSDVESVSVIQHTAAQLEKLAPQVAQAAILLCHQPTSKTAQENMETYKNAWFDKVRLLTTALDNITTLDDFLAVSEAHIVEDCERGIKGITANASTPDENAANCETVDCAAGSIRGRALRVCDVVDAEMDFLQNSEYTETVKQAVRILKTQRVDQFAERASALANRQEAHGLTWDPKTKEEEMNEFINACTLVHDAVKDIRHALLMNRSMNDVDSDVEYEADGVGAANADANRTISEQENQQNLMRRLPEEEKKKIQAQIDIFKVTQTRFEREVAKWDETGNDIISLANNMCKIMMSMTEFTRGCGPLKTTMDVIRAAQEISLNGSKLNALARQIGEESADSQTKKDLLAYLSQITLYCQQLNICSKVKADVTQVGNELVVSALDSAMSLIQTARNLLTAVVQTVKAAYIASTKFRRPNANSVRVEWRMAPPKKQPLIRPQKNNAIIRRASERRPLQPAKVLAEFTRNEIETGRDSDDEELDRRHQQRINGRL
Take B1: the binding entry in the test with TES-1::GFP (C. elegans) was “no binding”.

B2: ZYX-1/zyxin, endogenous (protein, UniProt Q9U3F4 1-603)
chain: MGPPPPPPPPPLLPSGEILPSRKWKTEDAPRRNNHPAPAPPKPSRPTVDASALQHAAARLRKTGYNEPVRGDVENLSDGRLDRPHQQLPDGDRTYRANLQQLAQPKTRAEIPSPPTYSNQPRPLGDFHRDPNALSQFQQSREALLSSTSPTSNYSPINKFSSSTLTQYANKSPSPPSFGNSNSEATYVSPYSSKHSYPTNFRSYHKDDDYFNNTATTATTTTSSNSLNENNNSNKYGNKETVLQWSEPYDPSKIRRSQSPIRNAREMIHEYSTTNYVTEVQQPPPPPPDLYQRMTQARTFLQNSLAKQLRDEGLTESQKAANRNQTGALSASSSIPFDASQIVKNSYNGDEVDHLVHQMRTKLNQPADTSPSIVQYPRRQAPDSSRANYSATTSTSFSSSTTRKIMNINICVGCGKEITGDQPGCNAMNQIFHVDCFKCGQCSKTLAGASFYNIDDKPTCEGCYQNSLEKCTACNRAISDKLLRACGGVYHVNCFVCFSCKKSLDGIPFTLDKDNNVHCVPCFHDKFAPRCALCSKPIVPQDGEKESVRVVAMDKSFHVDCYKCEDCGMQLSSKLEGQGCYPIDNHLLCKTCNGNRLRVVSST
Regarding B2, the binding result in the test with TES-1::GFP (C. elegans) was “binds”.

B3: ZYX-1-MBP (protein, UniProt Q9U3F4 1-603)
chain: B2 chain
As for B3, the binding entry in the test with GST-TES-1 (C. elegans) is given as “binds weakly”.
